Test results from article PMC11988436.
These are yes or no findings as the source states them, for the method shown. Binding seen in cells or lysates may run through a third protein. These calls come from enrichment with a bait or labelling near it, and not all partners need be listed.

Amino acid sequences for entries named in this document (tags omitted).
UniProt Q6R891: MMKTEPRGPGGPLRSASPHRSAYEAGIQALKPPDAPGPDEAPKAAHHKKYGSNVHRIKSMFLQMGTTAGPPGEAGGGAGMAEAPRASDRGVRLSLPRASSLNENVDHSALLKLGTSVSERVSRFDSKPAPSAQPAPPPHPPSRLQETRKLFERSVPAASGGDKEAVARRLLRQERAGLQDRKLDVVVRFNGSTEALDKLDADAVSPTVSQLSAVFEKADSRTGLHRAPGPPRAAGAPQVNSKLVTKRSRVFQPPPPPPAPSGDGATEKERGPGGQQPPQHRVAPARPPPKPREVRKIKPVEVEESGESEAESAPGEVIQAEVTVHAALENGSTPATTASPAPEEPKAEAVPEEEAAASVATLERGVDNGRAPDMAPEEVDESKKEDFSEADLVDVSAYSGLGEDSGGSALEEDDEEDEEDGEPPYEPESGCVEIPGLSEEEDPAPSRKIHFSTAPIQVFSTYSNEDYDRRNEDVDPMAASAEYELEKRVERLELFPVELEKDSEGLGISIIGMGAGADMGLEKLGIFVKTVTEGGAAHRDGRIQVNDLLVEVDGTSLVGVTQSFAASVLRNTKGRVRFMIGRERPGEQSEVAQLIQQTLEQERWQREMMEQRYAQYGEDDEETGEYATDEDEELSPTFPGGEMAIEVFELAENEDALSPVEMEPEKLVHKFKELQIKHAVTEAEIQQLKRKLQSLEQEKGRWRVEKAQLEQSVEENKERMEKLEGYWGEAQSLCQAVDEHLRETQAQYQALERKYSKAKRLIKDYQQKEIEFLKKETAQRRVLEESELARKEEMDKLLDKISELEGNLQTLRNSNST

Target: T1, E3 ubiquitin ligase PRAJA1 (mouse (endogenous in hippocampal CA1 tissue)) (UniProt O55176)
T1 sequence: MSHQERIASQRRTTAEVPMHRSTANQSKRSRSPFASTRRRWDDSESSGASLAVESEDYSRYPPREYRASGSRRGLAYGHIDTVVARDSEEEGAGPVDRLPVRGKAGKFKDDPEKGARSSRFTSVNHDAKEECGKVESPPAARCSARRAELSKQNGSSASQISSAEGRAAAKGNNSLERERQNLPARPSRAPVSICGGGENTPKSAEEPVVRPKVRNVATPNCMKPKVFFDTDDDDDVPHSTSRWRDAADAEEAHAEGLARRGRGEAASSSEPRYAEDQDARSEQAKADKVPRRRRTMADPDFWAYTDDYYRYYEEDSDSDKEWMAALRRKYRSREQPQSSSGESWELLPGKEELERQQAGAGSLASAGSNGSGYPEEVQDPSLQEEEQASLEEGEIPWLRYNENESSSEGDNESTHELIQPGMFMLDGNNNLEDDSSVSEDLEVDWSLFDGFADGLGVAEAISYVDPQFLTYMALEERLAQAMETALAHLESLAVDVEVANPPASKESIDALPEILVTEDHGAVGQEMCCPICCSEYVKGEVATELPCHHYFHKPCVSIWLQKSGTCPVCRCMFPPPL
Test: affinity purification with mass spectrometry; co-immunoprecipitation with the PRAJA1 antibody from mouse CA1 lysate, trypsin digest, TIMS-TOF Pro mass spectrometry, search against SwissProt Mus musculus

**Q.** Which binding does the source give for “spinophilin (neurabin 2) (from UniProt Q6R891 1-817)” here?
**A.** Its binding is “binds”.
